Measurements from publication PMC8406261.
No constants are given. Whether binding was seen depends on the method and setting. Binding seen in cells or lysates may run through a third protein. Some binding calls cover weakened binding; strength is not graded here.

The chains behind the UniProt entries cited, without tags or fusion partners.
UniProt Q13547: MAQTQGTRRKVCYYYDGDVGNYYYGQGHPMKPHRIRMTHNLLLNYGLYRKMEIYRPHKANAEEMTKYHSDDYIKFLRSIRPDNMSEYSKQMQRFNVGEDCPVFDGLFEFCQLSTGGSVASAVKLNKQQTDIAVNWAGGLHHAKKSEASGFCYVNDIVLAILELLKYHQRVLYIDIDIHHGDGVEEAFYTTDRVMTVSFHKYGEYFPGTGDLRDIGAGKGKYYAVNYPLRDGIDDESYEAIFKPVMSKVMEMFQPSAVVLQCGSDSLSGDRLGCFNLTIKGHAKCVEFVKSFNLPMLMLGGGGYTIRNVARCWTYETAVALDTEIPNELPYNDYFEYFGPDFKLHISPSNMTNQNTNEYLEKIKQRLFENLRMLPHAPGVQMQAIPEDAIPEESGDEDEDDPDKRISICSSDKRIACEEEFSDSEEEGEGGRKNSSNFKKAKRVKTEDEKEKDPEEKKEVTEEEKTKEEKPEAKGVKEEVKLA
UniProt Q92769: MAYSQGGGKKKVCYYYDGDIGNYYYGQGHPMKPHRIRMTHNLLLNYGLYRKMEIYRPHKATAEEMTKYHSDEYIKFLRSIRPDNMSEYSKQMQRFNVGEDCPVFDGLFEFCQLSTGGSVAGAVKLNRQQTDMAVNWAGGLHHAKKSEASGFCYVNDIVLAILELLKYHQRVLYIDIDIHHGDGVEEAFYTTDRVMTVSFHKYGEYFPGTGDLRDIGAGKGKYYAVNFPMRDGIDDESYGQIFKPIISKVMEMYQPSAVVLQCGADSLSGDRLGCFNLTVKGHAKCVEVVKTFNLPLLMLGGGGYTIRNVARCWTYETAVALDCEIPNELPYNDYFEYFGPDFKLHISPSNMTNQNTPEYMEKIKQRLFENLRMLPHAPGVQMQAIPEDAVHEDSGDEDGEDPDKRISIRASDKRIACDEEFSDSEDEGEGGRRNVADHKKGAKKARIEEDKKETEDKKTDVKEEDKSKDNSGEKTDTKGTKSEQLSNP

Target: T1, FKBP3 (human (endogenous in C11)) (UniProt Q00688)
T1 sequence: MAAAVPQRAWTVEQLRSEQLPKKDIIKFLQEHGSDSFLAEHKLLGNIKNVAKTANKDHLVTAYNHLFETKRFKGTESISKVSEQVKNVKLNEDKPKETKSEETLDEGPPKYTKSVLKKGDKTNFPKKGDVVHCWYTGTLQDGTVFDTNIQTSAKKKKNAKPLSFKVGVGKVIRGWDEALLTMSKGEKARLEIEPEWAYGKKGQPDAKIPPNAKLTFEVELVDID
Experiment: co-IP; immunoprecipitation from C11 cell lysates with anti-FKBP3 antibody, Western blotting with anti-YY1, anti-HDAC1 or anti-HDAC2 antibodies

With “histone deacetylase 1 (from UniProt Q13547 1-482) (enzyme)” the binding was “binds”.
“histone deacetylase 2 (from UniProt Q92769 1-488) (enzyme)” was tested, and the binding was “binds”.
